Measurements published in article PMC10563248.
No constants are given. Whether binding was seen depends on the method and setting. In cells and extracts the contact can be indirect. Some results given as binding are weak or reduced against the parent protein; the word gives no strength.

Sequences of proteins named here, by UniProt entry; tags and fusion partners are left off. Residues count along the entry.
UniProt P62813, residues 28-455: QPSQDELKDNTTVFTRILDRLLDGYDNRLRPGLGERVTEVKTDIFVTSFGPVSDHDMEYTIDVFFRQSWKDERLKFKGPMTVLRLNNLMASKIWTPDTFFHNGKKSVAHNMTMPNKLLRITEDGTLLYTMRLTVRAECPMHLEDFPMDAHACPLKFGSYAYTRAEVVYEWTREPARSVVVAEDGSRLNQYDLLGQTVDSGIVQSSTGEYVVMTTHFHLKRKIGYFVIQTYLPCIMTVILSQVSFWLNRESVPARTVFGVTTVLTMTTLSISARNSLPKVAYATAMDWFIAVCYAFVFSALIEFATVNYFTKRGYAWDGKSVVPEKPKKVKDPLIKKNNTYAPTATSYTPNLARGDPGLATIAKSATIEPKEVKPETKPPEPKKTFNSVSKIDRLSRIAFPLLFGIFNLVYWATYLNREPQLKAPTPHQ
UniProt P97546, residues 29-393: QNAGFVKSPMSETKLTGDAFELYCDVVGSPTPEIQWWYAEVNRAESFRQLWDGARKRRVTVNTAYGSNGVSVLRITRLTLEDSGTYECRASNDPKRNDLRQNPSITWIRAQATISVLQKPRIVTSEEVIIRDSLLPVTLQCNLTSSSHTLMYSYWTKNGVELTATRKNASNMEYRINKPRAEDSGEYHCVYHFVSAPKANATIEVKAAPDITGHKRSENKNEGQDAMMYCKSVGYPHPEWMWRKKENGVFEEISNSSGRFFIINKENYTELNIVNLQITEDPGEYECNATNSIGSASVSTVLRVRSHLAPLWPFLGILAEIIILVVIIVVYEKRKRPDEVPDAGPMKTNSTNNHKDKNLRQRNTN

Experiments:
[1] = molecular target: GABAaR subunit α-1 (rat (endogenous in primary hippocampal neurons and hippocampus)) (UniProt P62813); test: co-IP; native total protein of rat hippocampus; anti-GABA A receptor alpha 1 antibody (Abcam ab252430) 4 °C overnight, Protein A/G Plus-Agarose; blot for NPTN; groups: control, PTZ-induced SE, AAV-NC (SE), AAV-OE-NPTN (SE)
[2] = molecular target: GABAaR subunit α-1 (rat (endogenous in primary hippocampal neurons and hippocampus)) (UniProt P62813); test: co-IP; native total protein of cultured rat primary hippocampal neurons; anti-GABA A receptor alpha 1 antibody (Abcam ab252430) 4 °C overnight, Protein A/G Plus-Agarose; blot for NPTN; groups: control, Mg2+-free extracellular fluid 3 h, LV-NC (Mg2+-free), LV-OE-NPTN (Mg2+-free)

Substance	binding [1]	binding [2]
Neuroplastin isoform 2 precursor (NP_062253), overexpressed by adeno-associated virus (AAV-OE-NPTN) (from UniProt P97546-2 29-393)	binds	
Neuroplastin isoform 2 precursor (NP_062253), overexpressed by lentivirus (LV-OE-NPTN) (from UniProt P97546-2 29-393)		binds
